Reference: ChEMBL document CHEMBL5584273, “Investigation of Isobactin Analogues of Teixobactin” (ACS Med Chem Lett, 2024)

Tested on: Escherichia coli
Assay: Antibiotic activity against Escherichia coli ATCC 10798 assessed as inhibition of bacterial growth incubated for 16 hrs in presence of 0.002% polysorbate 80
Assay type: functional
Procedure, shortened: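 Broth microdilution in media containing 0.002% polysorbate 80. Overnight cultures were grown at 37 °C with shaking in Mueller-Hinton broth. Inoculum was set from background-corrected OD600 to about 5 × 10^5 CFU/mL final. 2-fold dilutions gave final 8 to 0.0078 μg/mL from a DMSO stock. Plates were incubated 16 h at 37 °C and OD600 was read. MIC is the lowest concentration with no growth. Run in quadruplicate technical replicates.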

`CN[C@H](CC(C)C)C(=O)N[C@H]1C(=O)N[C@@H](CC(N)=O)C(=O)N[C@H]2C(=O)N[C@H]3C(=O)N[C@H](C(=O)N[C@H](C(=O)O)c4cc(O)cc(O)c4-c4cc3ccc4O)[C@H](O)c3ccc(c(Cl)c3)Oc3cc2cc(c3O[C@@H]2O[C@H](CO)[C@@H](O)[C@H](O)[C@H]2O[C@H]2C[C@](C)(N)[C@H](O)[C@H](C)O2)Oc2ccc(cc2Cl)[C@H]1O` [VANCOMYCIN] gave an MIC of over 8 µg/mL.
